Assay [1] deals with VAMP7(1–190)-C21S/C56V (rat) (UniProt Q9JHW5). Briefly: co-purification of coexpressed proteins; coexpressed in E. coli BL21(DE3), 12 h at 25 °C; lysate on Ni-NTA agarose, washed, eluted with 300 mM imidazole, then Superdex 200 gel filtration; monitored by SDS-PAGE, mass spectrometry, CD and MALS. In general terms: SEC sorts molecules by how far they enter the pores of the column.

Chains of the proteins cited; added tags and fusions are not shown. Lines headed by an entry give the natural chain unless they say otherwise; changes in a name come on top. Residues count along the entry.
UniProt Q9JHW5, 119-190: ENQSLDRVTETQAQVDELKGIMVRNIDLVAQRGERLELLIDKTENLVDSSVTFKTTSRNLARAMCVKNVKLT
UniProt Q9JHW5, whole entry, looked up, stated change not applied: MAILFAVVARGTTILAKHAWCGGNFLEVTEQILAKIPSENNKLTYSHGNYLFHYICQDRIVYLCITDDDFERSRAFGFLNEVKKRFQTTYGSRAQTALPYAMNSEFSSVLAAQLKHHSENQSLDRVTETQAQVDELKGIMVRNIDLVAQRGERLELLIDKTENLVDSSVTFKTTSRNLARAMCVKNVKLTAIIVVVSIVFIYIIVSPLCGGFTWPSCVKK
UniProt P32851, whole entry, looked up, stated change not applied: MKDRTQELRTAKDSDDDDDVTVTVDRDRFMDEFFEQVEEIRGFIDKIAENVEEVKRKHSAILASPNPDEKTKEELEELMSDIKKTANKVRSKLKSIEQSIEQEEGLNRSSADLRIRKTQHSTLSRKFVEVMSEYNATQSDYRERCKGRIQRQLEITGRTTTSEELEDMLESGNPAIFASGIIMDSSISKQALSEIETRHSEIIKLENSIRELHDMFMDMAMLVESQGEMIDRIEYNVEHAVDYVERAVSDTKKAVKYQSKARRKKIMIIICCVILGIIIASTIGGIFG

The target of assay [2] is VAMP7(119–190) (rat) (UniProt Q9JHW5). Described as above.

Results are given in words; binding and its absence hold for the method and conditions named. Some results given as binding are weak or reduced against the parent protein; the word gives no strength.

With “syntaxin1A(1–265)-C145S/S249C/K253C (from UniProt P32851 1-265) (domain or fragment)”, the binding entry in assay [1] is “binds”.
On to “syntaxin1A(191–265)-C145S/S249C/K253C (from UniProt P32851 191-265) (domain or fragment)”, for which the binding result in assay [2] is given as “binds”.

These data come from PMC3750193, “Disassembly of All SNARE Complexes by N-Ethylmaleimide-sensitive Factor (NSF) Is Initiated by a Conserved 1:1 Interaction between α-Soluble NSF Attachment Protein (SNAP) and SNARE Complex*^([image sbox.jpg])” (The Journal of Biological Chemistry, 2013).
